Results deposited as PubChem BioAssay AID493246 (Drosophila RNAi Screening Center, 2011).

Purpose: 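Identify essential fly genes by loss of cell viability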 (primary screen)
Cell system: Drosophila Kc and S2R+ cells
Reagents: long dsRNA against Drosophila genes
Measured: 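Raw, unnormalised count of remaining cells in each well; per-plate z-scores of cell number underlie the calls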
Reading the numbers: Kc cell number and S2R+ cell number: higher = more cells remaining
Active means: 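Counted as a hit if cell number falls by a z-score of at least 3 within its plate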
The deposit covers about 21,000 reagents; below is an unselected part of those that have a named target and a result. In the full data, 429 (2%) got an active call. 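Values are raw and not normalised between plates; calls rest on per-plate z-scores that were not deposited.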 No sequences are given here. Not given: the amount of reagent, the time to read-out.

gene	amplicon	Kc cell number, rep 1	Kc cell number, rep 2	S2R+ cell number, rep 1	S2R+ cell number, rep 2	outcome
CG17572	DRSC02629	1.48e6	1.64e6	1.33e6	2.94e5	inactive
MRG15	DRSC16731	1.50e6	1.54e6	1.19e6	1.34e6	inactive
slou	DRSC17058	1.41e6	1.39e6	1.10e6	1.20e6	inactive
Adck5	DRSC10890	1.38e6	1.54e6	1.41e6	1.54e6	inactive
Zdhhc8	DRSC18044	1.50e6	1.59e6	8.91e5	1.06e6	inactive
Zdhhc8	DRSC18122	1.61e6	1.61e6	1.02e6	1.12e6	inactive
vg	DRSC07715	1.41e6	1.53e6	1.06e6	1.18e6	inactive
CG13042	DRSC09923	1.58e6	1.56e6	1.22e6	1.32e6	inactive
b6	DRSC18740	1.61e6	1.73e6	1.03e6	1.15e6	inactive
GCC185	DRSC15493	1.81e6	1.95e6	1.40e6	1.58e6	inactive
RanBPM	DRSC06079	1.35e6	1.44e6	1.06e6	1.04e6	inactive
CG13894	DRSC08364	1.51e6	1.46e6	6.74e5	8.12e5	inactive
Faa	DRSC08451	1.37e6	1.47e6	1.31e6	1.21e6	inactive
CG33704	DRSC03838	5.11e5		8.68e5		inactive
CG42329	DRSC00373	1.50e6	1.54e6	1.05e6	1.19e6	inactive
CG42329	DRSC00682	1.46e6	1.45e6	1.07e6	1.20e6	inactive
RpL7	DRSC03417	8.74e5	1.07e6	6.45e5	8.02e5	active
CG17764	DRSC18135	1.50e6	1.62e6	1.04e6	1.15e6	inactive
CG7299	DRSC03043	1.56e6	1.82e6	1.39e6	1.61e6	inactive
Sfxn2	DRSC10718	1.41e6	1.64e6	1.21e6	1.32e6	inactive
CG34434	DRSC18134	1.52e6	1.52e6	1.06e6	1.23e6	inactive
hob	DRSC08426	1.42e6	1.44e6	1.08e6	1.02e6	inactive
Oatp58Da	DRSC04365	1.78e6	1.90e6	1.39e6	5.84e5	inactive
Yeti	DRSC21138	1.50e6	1.52e6	9.74e5	1.04e6	inactive
fs(1)Ya	DRSC18776	5.04e5		7.03e5		inactive
CG16779	DRSC15153	1.54e6	1.55e6	1.20e6	1.28e6	inactive

The list goes on (9 carried over from the part before).
gene	amplicon	Kc cell number, rep 1	Kc cell number, rep 2	S2R+ cell number, rep 1	S2R+ cell number, rep 2	outcome
CG17764	DRSC18135	1.50e6	1.62e6	1.04e6	1.15e6	inactive
CG7299	DRSC03043	1.56e6	1.82e6	1.39e6	1.61e6	inactive
Sfxn2	DRSC10718	1.41e6	1.64e6	1.21e6	1.32e6	inactive
CG34434	DRSC18134	1.52e6	1.52e6	1.06e6	1.23e6	inactive
hob	DRSC08426	1.42e6	1.44e6	1.08e6	1.02e6	inactive
Oatp58Da	DRSC04365	1.78e6	1.90e6	1.39e6	5.84e5	inactive
Yeti	DRSC21138	1.50e6	1.52e6	9.74e5	1.04e6	inactive
fs(1)Ya	DRSC18776	5.04e5		7.03e5		inactive
CG16779	DRSC15153	1.54e6	1.55e6	1.20e6	1.28e6	inactive
CG13708	DRSC08317	1.27e6	1.36e6	1.11e6	1.13e6	inactive
Pgant6	DRSC08552	1.36e6	1.35e6	1.03e6	1.06e6	inactive
stet	DRSC08246	1.39e6	1.30e6	9.86e5	1.16e6	inactive
stet	DRSC08283	1.50e6	1.46e6	8.46e5	1.08e6	inactive
Octbeta2R	DRSC15350	1.42e6	1.48e6	1.40e6	1.45e6	inactive
Octbeta2R	DRSC16165	1.41e6	1.44e6	1.31e6	1.39e6	inactive
Phk-3	DRSC04547	1.56e6	1.47e6	1.30e6	1.38e6	inactive
polyph	DRSC06254	1.76e6	1.66e6	1.32e6	1.51e6	inactive
CG3448	DRSC10368	1.47e6	1.49e6	1.18e6	1.26e6	inactive
Gpo2	DRSC06822	1.76e6	1.96e6	1.22e6	1.37e6	inactive
Pfdn4	DRSC09761	1.35e6	1.32e6	1.13e6	1.15e6	inactive
H15	DRSC03339	1.45e6	1.22e6	1.13e6	1.25e6	inactive
2mit	DRSC14194	1.48e6	1.52e6	1.08e6	1.25e6	inactive
2mit	DRSC15224	1.49e6	1.54e6	1.16e6	1.27e6	inactive
Taf6	DRSC11299	1.63e6	1.71e6	1.18e6	1.24e6	inactive
CG33922	DRSC00050	1.49e6	1.50e6	1.03e6	1.16e6	inactive
eIF4E5	DRSC10975	1.57e6	1.50e6	1.19e6	1.18e6	inactive
Letm1	DRSC04476	1.31e6	1.39e6	8.91e5	9.94e5	inactive
CG31817	DRSC01537	1.47e6	1.50e6	1.00e6	1.23e6	inactive
CG31817	DRSC01538	1.64e6	1.78e6	1.07e6	1.22e6	inactive
Lmpt	DRSC09450	1.33e6	1.26e6	1.02e6	1.11e6	inactive
Lmpt	DRSC09864	1.52e6	1.67e6	1.28e6	1.38e6	inactive
Lmpt	DRSC09865	1.48e6	1.50e6	1.33e6	1.27e6	inactive
Lmpt	DRSC09866	1.36e6	1.54e6	1.26e6	1.39e6	inactive
Lmpt	DRSC11107	1.36e6	1.44e6	1.26e6	1.34e6	inactive
Fsn	DRSC06875	1.31e6	1.42e6	1.06e6	1.08e6	inactive
tea	DRSC06110	1.26e6	1.33e6	1.02e6	1.10e6	inactive
tea	DRSC06236	1.44e6	1.48e6	1.13e6	1.30e6	inactive
eIF4E6	DRSC14853	1.51e6	1.48e6	1.01e6	1.14e6	inactive
CG3566	DRSC18311	1.79e6	1.74e6	1.17e6	1.28e6	inactive
CG32119	DRSC09248	1.33e6	1.70e6	1.01e6	1.16e6	inactive
CG40053 (retired record)	DRSC20833	1.21e6	1.51e6	1.09e6	1.07e6	inactive
CG9068	DRSC07329	1.63e6	1.59e6	1.20e6	1.28e6	inactive
obst-H	DRSC10935	1.68e6	1.59e6	1.25e6	1.35e6	inactive
obst-H	DRSC10940	1.70e6	1.57e6	1.20e6	1.42e6	inactive
Setd3	DRSC17840	1.46e6	1.49e6	1.04e6	1.22e6	inactive
Setd3	DRSC18269	1.52e6	1.46e6	1.05e6	1.17e6	inactive
RunxB	DRSC20395	1.23e6	1.38e6	1.06e6	1.18e6	inactive
RunxB	DRSC20525	1.51e6	1.54e6	1.02e6	1.16e6	inactive
RunxB	DRSC20526	3.51e5	4.05e5	4.28e5	5.20e5	active
CG9447	DRSC05008	1.57e6	1.68e6	1.31e6	1.48e6	inactive
pippin	DRSC04489	1.34e6	1.43e6	9.76e5	9.66e5	inactive
BOD1	DRSC15824	5.19e5		7.90e5		inactive
dpr18	DRSC19606	1.56e6	1.58e6	1.12e6	1.23e6	inactive
nero	DRSC15432	4.91e5		7.52e5		inactive
CG42680	DRSC01399	1.65e6	1.67e6	9.84e5	1.21e6	inactive
Br140	DRSC06755	1.22e6	1.30e6	8.04e5	8.82e5	inactive
CG1927	DRSC08146	1.36e6	1.44e6	1.25e6	1.24e6	inactive
Adck1	DRSC04394	1.38e6	1.42e6	1.20e6	1.30e6	inactive
